We go through 34 molecules from the supplement of paper PMC12462457.

SMILES strings stand for the structures. Where a name gives a salt, the structure may show the parent alone. ± gives the standard deviation of the averaged measurements. The list shows a part of the results. Repeats in this data set agree poorly, so a single value says little.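 Cells were counted by imaging DAPI-stained nuclei, and cells lacking phalloidin-stained cytoplasm were excluded as dead. Each well's count was divided by the median count of the vehicle wells on the same plate, and values were averaged over two replicate plates.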

The subject of this assay is OVCAR8. As to the kind of experiment: cell count relative to DMSO vehicle (fold change); higher = more surviving senescent cells (less killing). The note with it: senescence inducer: cisplatin 10 µM 48 h, then 6 d recovery (CP senescent), exposure time 24 h.

In turn, `CO[C@H]1/C=C\C=C(/C)C(=O)NC2=CC(=O)C(NCCN(C)C)=C(C[C@@H](C)C[C@H](OC)[C@H](O)[C@@H](C)/C=C(\C)[C@@H]1OC(N)=O)C2=O` [Alvespimycin (hydrochloride)] showed a cell count (compound dose 1 µM) of 0.243 ± 0.059 and a cell count (compound dose 5 µM) of 0.261 ± 0.0085.

With `CC1=NN(c2ccccc2)C(=O)C1`, the cell count (compound dose 1 µM) is 1.18 ± 0.044 and the cell count (compound dose 5 µM) worked out at 1.13 ± 0.084.

Molecule `CC(=O)c1ccc2c(c1)c1cc(C(C)=O)ccc1n2CCNC(C)C` [CBL0137 hydrochloride] registered a cell count (compound dose 1 µM) of 0.453 ± 0.2 and a cell count (compound dose 5 µM) of 0.342 ± 0.056.

Regarding `O=C(/C=C/c1ccc(O)cc1)CC(=O)/C=C/c1ccc(O)cc1` [Bisdemethoxycurcumin], the cell count reads like this: (compound dose 1 µM) 1.21 ± 0.047; (compound dose 5 µM) 1.1 ± 0.36.

For `COc1ccc(Cn2ccc3ccc(C(=O)NO)cc32)cc1`, the cell count (compound dose 1 µM) was 0.9235 ± 0.0092 and the cell count (compound dose 5 µM) was determined as 1.04 ± 0.32.

As for `CC#CC(=O)N1CC[C@@H](n2c(=O)n(-c3ccc(Oc4ccccc4)cc3)c3c(N)ncnc32)C1` [Tirabrutinib], the cell count stood at 1.25 ± 0.11 (compound dose 1 µM) and 1.1 ± 0.16 (compound dose 5 µM).

In the case of `CC1(C)O[C@H]2CC(=O)OC[C@]23[C@H]2CC[C@@]4(C)[C@H](c5ccoc5)OC(=O)[C@H]5O[C@]54[C@]2(C)C(=O)C[C@@H]13` [Limonin], the cell count by setting is: (compound dose 1 µM) 1.25 ± 0.08; (compound dose 5 µM) 0.82 ± 0.11.

Consider `CCOC(=O)c1cnc2ccc(-c3cncc(NS(=O)(=O)c4ccccc4)c3)cn12`, for which the cell count was 0.795 ± 0.13 (compound dose 1 µM) and 0.39 ± 0.0099 (compound dose 5 µM).

Take `COc1cc(C(=O)N2CCC(N3CCN(C)CC3)CC2)ccc1Nc1ncc2c(n1)N(C)c1ccccc1C(=O)N2C`: the cell count is 0.728 ± 0.053 (compound dose 1 µM) and 0.652 ± 0.03 (compound dose 5 µM).

`COc1cc2cc(c1Cl)N(C)C(=O)CC(O)C1(C)OC1C(C)C1CC(O)(NC(=O)O1)C(OC)/C=C/C=C(\C)C2` (stereo not drawn) [Maytansinol]: the cell count came to 1 ± 0.033 (compound dose 1 µM) and 0.664 ± 0.17 (compound dose 5 µM).

For `Cc1[nH]c2ccc(F)cc2c1-c1nc2c3cccnc3c3ncccc3c2[nH]1`, the cell count is 1.12 ± 0.11 (compound dose 1 µM) and 1.27 ± 0.036 (compound dose 5 µM).

As to `Cc1ccc(-c2cn3c4c(sc3n2)CCCC4)cc1` [Pifithrin-β (hydrobromide)], the cell count by setting is: (compound dose 1 µM) 1.14 ± 0.35; (compound dose 5 µM) 1.21 ± 0.19.

Regarding `CC(C)=CCC[C@](C)(O)[C@H]1CC[C@]2(C)[C@@H]1[C@H](O)C[C@@H]1[C@@]3(C)CC[C@H](O)C(C)(C)[C@@H]3CC[C@]12C` [(20S)-Protopanaxadiol], the cell count by setting is: (compound dose 1 µM) 0.789 ± 0.19; (compound dose 5 µM) 0.43 ± 0.24.

For the molecule `CCCCCCCC(=O)/C=C/c1ccc(O)c(OC)c1` [(E)-[6]-Dehydroparadol], the cell count is, setting by setting: (compound dose 1 µM) 1 ± 0.22; (compound dose 5 µM) 1.084 ± 0.0057.

For `Cc1cc2nc3c(=O)[nH]c(=O)nc-3n(C)c2cc1C=O`, the cell count is, setting by setting: (compound dose 1 µM) 0.92 ± 0.055; (compound dose 5 µM) 0.63 ± 0.75.

Take `O=C(O)C(=O)O.[NH-][C@@H]1CCCC[C@H]1[NH-].[Pt+2]`: the cell count runs as follows: (compound dose 1 µM) 0.812 ± 0.2; (compound dose 5 µM) 0.458 ± 0.09.

On to `C=CCSSSCC=C`, for which the cell count came out at 1.14 ± 0.065 (compound dose 1 µM) and 0.964 ± 0.3 (compound dose 5 µM).

As to `Cc1cc(C(C)(C)C)c(O)c(C(C)(C)C)c1`, the cell count was 1.13 ± 0.073 (compound dose 1 µM) and 1.16 ± 0.035 (compound dose 5 µM).

On to `C1COC(NC(C2CC2)C2CC2)=N1` [Rilmenidine (hemifumarate)], for which the cell count is, setting by setting: (compound dose 1 µM) 0.958 ± 0.14; (compound dose 5 µM) 0.823 ± 0.14.

With `C/C(=C\c1csc(C)n1)[C@@H]1C[C@@H]2O[C@]2(C)CCC[C@H](C)[C@H](O)[C@@H](C)C(=O)C(C)(C)[C@@H](O)CC(=O)N1` [Ixabepilone], the cell count (compound dose 1 µM) was found to be 1.05 ± 0.015 and the cell count (compound dose 5 µM) turned out to be 0.98 ± 0.19.

`O=C(O)c1cn(C2CC2)c2cc(N3CCNCC3)c(F)cc2c1=O`: the cell count by setting is: (compound dose 1 µM) 0.963 ± 0.098; (compound dose 5 µM) 0.537 ± 0.15.

Molecule `CN1CC(=O)N2[C@H](c3ccc4c(c3)OCO4)c3[nH]c4ccccc4c3C[C@@H]2C1=O` [Tadalafil] returned a cell count (compound dose 1 µM) of 0.922 ± 0.15 and a cell count (compound dose 5 µM) of 0.797 ± 0.06.

For the molecule `CCN(C(=O)c1c(O)c2c(Cl)cccc2n(C)c1=O)c1ccccc1` [Laquinimod], the cell count was determined as 1.14 ± 0.17 (compound dose 1 µM) and 1.13 ± 0.14 (compound dose 5 µM).

`CC(NC(=O)c1ccccc1/N=C/c1c(O)ccc2ccccc12)c1ccccc1` (stereo not drawn) [Sirtinol] returned a cell count (compound dose 1 µM) of 0.892 ± 0.14 and a cell count (compound dose 5 µM) of 0.442 ± 0.34.

`O=C(Nc1nc2ccc(NC(=O)C34CC5CC(CC(C5)C3)C4)cc2s1)c1ccccc1` had a cell count (compound dose 1 µM) of 1.23 ± 0.054 and a cell count (compound dose 5 µM) of 0.912 ± 0.18.

Consider `Nc1ccn([C@@H]2C(F)=C(CO)[C@@H](O)[C@H]2O)c(=O)n1`, for which the cell count is, setting by setting: (compound dose 1 µM) 1.15 ± 0.1; (compound dose 5 µM) 1.24 ± 0.016.

As to `CCC[C@H](C)Oc1nc(N)c2[nH]c(=O)n(CCCCCN3CCCCC3)c2n1`, the cell count (compound dose 1 µM) came to 1.08 ± 0.22 and the cell count (compound dose 5 µM) was found to be 1.01 ± 0.14.

In the case of `NC(=O)c1cccc2cn(-c3ccc([C@@H]4CCCNC4)cc3)nc12` [Niraparib], the cell count was 1.17 ± 0.05 (compound dose 1 µM) and 0.808 ± 0.32 (compound dose 5 µM).

In the case of `NC(=O)c1cccc2cn(-c3ccc([C@@H]4CCCNC4)cc3)nc12` [Niraparib (MK-4827) tosylate], the cell count reads like this: (compound dose 1 µM) 1.091 ± 0.0078; (compound dose 5 µM) 0.722 ± 0.61.

As to `CO[C@@H]1[C@H](N(C)C(=O)c2ccccc2)C[C@H]2O[C@]1(C)n1c3ccccc3c3c4c(c5c6ccccc6n2c5c31)C(=O)NC4` [Midostaurin], the cell count is, setting by setting: (compound dose 1 µM) 0.454 ± 0.021; (compound dose 5 µM) 0.134 ± 0.069.

For `CC[C@H](C)[C@H](NC(=O)OCc1ccccc1)C(=O)N[C@H](C=O)CC(C)C` [Z-Ile-Leu-aldehyde], the cell count is, setting by setting: (compound dose 1 µM) 1.16 ± 0.1; (compound dose 5 µM) 1.1 ± 0.091.

For the molecule `CNC(=O)c1cccc(-c2ccc3c(N4CCOC[C@@H]4C)nc(N4CCOC[C@@H]4C)nc3n2)c1` [Vistusertib], the cell count runs as follows: (compound dose 1 µM) 0.912 ± 0.058; (compound dose 5 µM) 0.83 ± 0.048.

The molecule `CCc1cc(Nc2nccc(-c3c(-c4ccc(OC)c(C(=O)Nc5c(F)cccc5F)c4)nc4ccccn34)n2)c(OC)cc1N1CCC(N2CCN(S(C)(=O)=O)CC2)CC1` showed a cell count (compound dose 1 µM) of 0.774 ± 0.088 and a cell count (compound dose 5 µM) of 0.579 ± 0.047.

In the case of `CC(C)C[C@H](NC(=O)[C@@H](NC(=O)c1cccc(-c2ccccc2)n1)[C@@H](C)O)B(O)O` [Delanzomib], the cell count was determined as 0.622 ± 0.081 (compound dose 1 µM) and 0.646 ± 0.03 (compound dose 5 µM).
